Source: patent US20140213558A1, “TREATMENT OF INFLAMMATORY DISEASE OR DISORDER AND COMPOSITIONS THEREFOR” (CREDE OILS (PTY) LTD, priority 2011, published 2014)
At least one compound was matched to its structure with a doubt left.

Assay: Comparison of omega-3 EFAs as anti-inflammatory
Conditions: among the omega-3 EFAs studied

CC/C=C\C/C=C\C/C=C\C/C=C\C/C=C\CCCC(=O)O [EPA, Eicosapentaenoic acid]
effectiveness as an anti-inflammatory relative to other omega-3 EFAs: more effective as an anti-inflammatory than was docosahexaenoic acid (DHA) or alpha-linolenic acid
